About 110 (0.038%) of roughly 290,000 compounds were called active. Inconclusive results, whose numbers are uncertain, are shown with a selection of clear calls. Calls follow the shape of the dose curve; as a rule, active = well fitted inhibition curve with a large enough effect in the polarisation, with a control signal flat (not every such curve was filed as active); inconclusive = small, poorly fitted or top-dose-only effect, or effect the other way, or a change in a side signal; inactive = no such curve, though single readings can be large or run the other way; the % refers to the polarisation. Potencies beside an inconclusive call are fits to weak or partial responses and may not hold up. A note “side channel” means that the fit belongs to a control or component signal, not to the main read-out.
Molecular target: Histone-lysine N-methyltransferase 2A (Homo sapiens) (UniProt Q03164)
Test: qHTS Fluorescence Polarization Assay for Inhibitors of MLL CXXC domain - DNA interaction
Settings: MLL-CXXC / FITC-HOXA9 DNA fluorescence polarization; activity change, negative = inhibition: at 115 µM (top of the series)
Procedure, shortened: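 Purified MLL-CXXC (added from a 7 uM solution) was preincubated 5 min at ambient with pinned compounds in 50 mM Tris-HCl pH 7.5, 50 mM NaCl, 1 mM DTT, 0.05% BSA. Fluorescein-labeled HOX-A9 DNA (50 nM solution) followed, 30 min, then polarization read.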
Potency is read from the fitted curve at half-maximal effect.

By UniProt entry, the sequences of proteins in these tests, tags left out.
UniProt Q03164, whole entry, looked up: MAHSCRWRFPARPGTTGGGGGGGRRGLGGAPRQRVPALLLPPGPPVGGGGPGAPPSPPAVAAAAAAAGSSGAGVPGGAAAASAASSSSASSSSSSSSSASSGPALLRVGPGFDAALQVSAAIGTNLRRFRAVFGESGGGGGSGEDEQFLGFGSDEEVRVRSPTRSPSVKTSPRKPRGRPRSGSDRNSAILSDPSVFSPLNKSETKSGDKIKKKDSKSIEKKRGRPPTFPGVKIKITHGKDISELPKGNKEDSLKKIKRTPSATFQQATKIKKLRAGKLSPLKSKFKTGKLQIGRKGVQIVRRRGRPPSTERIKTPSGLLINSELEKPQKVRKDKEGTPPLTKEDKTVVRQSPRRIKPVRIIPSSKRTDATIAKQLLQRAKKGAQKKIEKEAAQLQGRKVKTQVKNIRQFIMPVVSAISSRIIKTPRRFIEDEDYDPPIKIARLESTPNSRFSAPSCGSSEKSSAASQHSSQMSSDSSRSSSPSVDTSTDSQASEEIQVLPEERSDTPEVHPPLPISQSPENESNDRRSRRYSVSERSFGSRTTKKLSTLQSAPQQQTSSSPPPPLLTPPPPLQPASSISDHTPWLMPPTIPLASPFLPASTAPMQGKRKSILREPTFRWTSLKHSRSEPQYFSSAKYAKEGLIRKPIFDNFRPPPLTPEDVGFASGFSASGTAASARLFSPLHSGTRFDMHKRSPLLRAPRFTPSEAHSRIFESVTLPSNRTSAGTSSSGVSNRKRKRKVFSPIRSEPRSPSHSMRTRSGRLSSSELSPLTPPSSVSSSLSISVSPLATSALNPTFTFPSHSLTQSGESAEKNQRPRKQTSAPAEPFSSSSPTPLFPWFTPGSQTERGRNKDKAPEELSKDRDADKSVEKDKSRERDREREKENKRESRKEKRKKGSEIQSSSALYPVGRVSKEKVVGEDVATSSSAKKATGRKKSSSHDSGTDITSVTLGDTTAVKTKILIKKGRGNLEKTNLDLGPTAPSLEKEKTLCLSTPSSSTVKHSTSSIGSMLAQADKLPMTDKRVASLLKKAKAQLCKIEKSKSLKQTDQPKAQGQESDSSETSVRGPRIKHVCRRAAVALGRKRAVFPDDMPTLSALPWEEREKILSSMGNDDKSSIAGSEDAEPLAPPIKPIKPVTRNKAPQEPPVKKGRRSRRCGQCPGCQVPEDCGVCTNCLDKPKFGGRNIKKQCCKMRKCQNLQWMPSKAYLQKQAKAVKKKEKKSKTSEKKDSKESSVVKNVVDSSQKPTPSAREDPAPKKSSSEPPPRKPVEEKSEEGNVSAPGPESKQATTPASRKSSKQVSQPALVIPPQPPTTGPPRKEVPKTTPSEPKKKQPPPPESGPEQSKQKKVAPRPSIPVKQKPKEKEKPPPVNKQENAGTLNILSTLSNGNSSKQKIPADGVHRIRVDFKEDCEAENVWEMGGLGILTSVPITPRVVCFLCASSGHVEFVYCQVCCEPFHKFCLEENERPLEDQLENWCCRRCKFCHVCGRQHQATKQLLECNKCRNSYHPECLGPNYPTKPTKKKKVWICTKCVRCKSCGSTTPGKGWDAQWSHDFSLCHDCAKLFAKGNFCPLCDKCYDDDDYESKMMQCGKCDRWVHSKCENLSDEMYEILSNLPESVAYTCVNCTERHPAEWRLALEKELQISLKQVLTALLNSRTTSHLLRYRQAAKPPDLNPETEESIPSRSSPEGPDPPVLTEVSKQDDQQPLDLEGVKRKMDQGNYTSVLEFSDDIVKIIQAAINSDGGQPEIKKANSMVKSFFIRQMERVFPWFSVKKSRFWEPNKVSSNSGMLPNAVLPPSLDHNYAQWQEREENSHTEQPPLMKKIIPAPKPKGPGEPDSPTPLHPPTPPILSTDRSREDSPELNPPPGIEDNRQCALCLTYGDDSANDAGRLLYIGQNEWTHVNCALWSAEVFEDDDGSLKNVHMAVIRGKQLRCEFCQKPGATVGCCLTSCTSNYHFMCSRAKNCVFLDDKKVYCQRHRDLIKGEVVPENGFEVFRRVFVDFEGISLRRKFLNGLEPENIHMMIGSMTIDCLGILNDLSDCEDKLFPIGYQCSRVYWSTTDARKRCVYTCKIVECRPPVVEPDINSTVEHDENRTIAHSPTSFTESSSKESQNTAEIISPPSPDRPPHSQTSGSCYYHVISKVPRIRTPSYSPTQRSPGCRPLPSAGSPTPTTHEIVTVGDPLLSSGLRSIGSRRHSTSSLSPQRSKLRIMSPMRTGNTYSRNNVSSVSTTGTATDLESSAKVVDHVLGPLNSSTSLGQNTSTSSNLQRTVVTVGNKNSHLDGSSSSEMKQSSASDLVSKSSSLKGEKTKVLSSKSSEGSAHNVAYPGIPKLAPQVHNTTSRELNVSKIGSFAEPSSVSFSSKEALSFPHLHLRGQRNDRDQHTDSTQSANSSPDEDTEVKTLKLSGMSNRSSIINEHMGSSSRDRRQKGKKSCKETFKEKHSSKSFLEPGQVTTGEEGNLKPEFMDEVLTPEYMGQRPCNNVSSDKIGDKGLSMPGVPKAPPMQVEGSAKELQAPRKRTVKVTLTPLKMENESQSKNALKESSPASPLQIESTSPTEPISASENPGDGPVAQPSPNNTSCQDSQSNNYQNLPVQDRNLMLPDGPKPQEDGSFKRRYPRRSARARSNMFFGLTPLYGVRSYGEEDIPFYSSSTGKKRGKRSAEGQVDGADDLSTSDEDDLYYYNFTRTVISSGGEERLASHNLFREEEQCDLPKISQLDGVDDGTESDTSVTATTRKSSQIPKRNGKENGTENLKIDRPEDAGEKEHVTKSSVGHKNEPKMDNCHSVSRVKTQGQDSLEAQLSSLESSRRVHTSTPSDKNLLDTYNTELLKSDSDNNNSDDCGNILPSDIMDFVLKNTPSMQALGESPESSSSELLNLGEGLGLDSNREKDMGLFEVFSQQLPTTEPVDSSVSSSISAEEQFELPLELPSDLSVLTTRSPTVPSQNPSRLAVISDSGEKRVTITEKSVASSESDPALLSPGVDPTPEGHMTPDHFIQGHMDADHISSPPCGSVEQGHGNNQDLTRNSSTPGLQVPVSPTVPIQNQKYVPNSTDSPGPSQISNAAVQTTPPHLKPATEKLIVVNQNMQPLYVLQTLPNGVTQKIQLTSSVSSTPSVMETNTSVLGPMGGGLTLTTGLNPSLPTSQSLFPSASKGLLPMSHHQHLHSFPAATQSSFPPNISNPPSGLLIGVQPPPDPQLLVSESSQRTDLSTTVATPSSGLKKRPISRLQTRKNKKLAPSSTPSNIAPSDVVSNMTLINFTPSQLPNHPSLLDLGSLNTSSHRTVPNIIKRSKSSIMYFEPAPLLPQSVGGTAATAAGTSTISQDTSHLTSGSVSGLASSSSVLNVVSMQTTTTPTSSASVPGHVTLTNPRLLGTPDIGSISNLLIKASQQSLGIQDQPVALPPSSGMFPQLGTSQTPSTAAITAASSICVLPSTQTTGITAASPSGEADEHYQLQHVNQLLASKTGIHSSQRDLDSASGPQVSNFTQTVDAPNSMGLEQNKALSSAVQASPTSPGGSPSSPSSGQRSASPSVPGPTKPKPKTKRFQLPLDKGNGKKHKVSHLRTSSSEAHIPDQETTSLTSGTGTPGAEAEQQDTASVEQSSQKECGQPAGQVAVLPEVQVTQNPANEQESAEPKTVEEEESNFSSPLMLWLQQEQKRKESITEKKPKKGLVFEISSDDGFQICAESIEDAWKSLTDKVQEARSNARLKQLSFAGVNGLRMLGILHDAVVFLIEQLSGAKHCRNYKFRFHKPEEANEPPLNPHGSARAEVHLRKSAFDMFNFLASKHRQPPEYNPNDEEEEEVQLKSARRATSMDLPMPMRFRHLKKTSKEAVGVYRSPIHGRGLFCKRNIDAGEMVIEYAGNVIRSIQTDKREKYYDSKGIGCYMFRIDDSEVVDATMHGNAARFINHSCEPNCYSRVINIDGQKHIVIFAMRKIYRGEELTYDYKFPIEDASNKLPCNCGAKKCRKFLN

SMILES | Potency | activity change, negative = inhibition
COc1ccc(C(=O)N2CCc3cc(OC)c(OC)cc3C2c2ccc(OC)c(OC)c2)cc1OC (centres undefined) | inconclusive: 15.8 µM [fluorescent, side channel, single point] | 
CC(C)Cc1nnc(NC(=O)c2ccc3c(=O)n4c(nc3c2)CCC4)s1 | inconclusive: 7.08 µM [fluorescent, side channel, single point] | 
Cc1ccc(O)c(NC(=O)CSc2ccc(Cl)cc2)c1 | inactive | 
O=C(COc1ccc(F)cc1Cl)Nc1cc(S(=O)(=O)N2CCOCC2)ccc1N1CCCCC1 | inconclusive: 44.7 µM [fluorescent, side channel, partial curve] | 
Cc1ccccc1NCc1ccc(O)c2ncccc12 | inactive | 
C=C(Cl)COc1ccc2c(CCC)cc(=O)oc2c1 | inconclusive: 89.1 µM [quencher, side channel, single point] | 
COc1cccc(CSc2nc3nc(C)cc(C)n3n2)c1 | inconclusive: 70.8 µM [fluorescent, side channel, single point] | 
Cc1ccc(-n2c(-c3ccc(Cl)cc3)n[nH]c2=S)c(C)c1 | inconclusive: 31.6 µM [inhibitor, single point] | 
CCOc1ccc(NC(=S)NCCCn2ccnc2)cc1 | inconclusive: 44.7 µM [fluorescent, side channel, single point] | 
COc1ccccc1NC(=S)NC(C)=O | inconclusive: 35.5 µM [inhibitor, partial curve] | 
COc1ccccc1OCCNC(=O)CCNC(=O)c1ccccc1Cl |  | inconclusive: -0.248% [phenotype inactive]
CN(C)CCCN(C(=O)CCc1ccccc1)c1nc2ccc(Br)cc2s1 | inactive | 
CCOC(=O)/C(=C/C=C1\Sc2ccccc2N1CC)C(C)=O | inconclusive: 8.91 µM [fluorescent, side channel, full curve] | 
O=C(NCCN1CCOCC1)C(=O)NCC1OCCN1S(=O)(=O)c1cc(F)ccc1F (centres undefined) | inconclusive: 70.8 µM [fluorescent, side channel, single point] | 
Cc1ccc2nc3sc(C(=O)N4CCOCC4)c(N)c3cc2c1 | inconclusive: 39.8 µM [fluorescent, side channel, single point] | 
CCC(NC(C)C)C(O)c1ccc(O)c(O)c1 (centres undefined) | inactive | 
Nc1nonc1-n1nnc(C(=O)N/N=C/c2cc(Br)ccc2O)c1CNc1ccccc1 | inconclusive: 10 µM [quencher, side channel, full curve, poor fit] | 
O=C(Cc1ccccc1)NCC(=O)Nc1cccc(Br)c1 |  | inconclusive: 3.49% [phenotype inactive]
CC(C)C(=O)Nc1ccc(C(=O)NNC(=S)NC(=O)c2ccccc2[N+](=O)[O-])cc1 | inconclusive: 70.8 µM [inhibitor, single point] | 
Nc1nc(N2CCN(C(c3ccccc3)c3ccccc3)CC2)n[nH]1 | inactive | 

SMILES | Potency | activity change, negative = inhibition
COc1ccc(C(CNC(=O)c2ccc(NS(=O)(=O)c3ccc(F)cc3)cc2)N2CCOCC2)cc1 (centres undefined) | inconclusive: 14.1 µM [quencher, side channel, single point] | 
COc1cc(/C=C(\C#N)c2nc3ccccc3s2)cc([N+](=O)[O-])c1O | inactive | 
O=C1NC[C@H](Cc2ccc(O)cc2)N(CCc2cccc3ccccc23)C1=O | inconclusive: 1.41 µM [inhibitor, full curve, poor fit] | 
COc1ccc(C(O)c2nccn2Cc2ccccc2)cc1OC (centres undefined) | inconclusive: 15.8 µM [inhibitor, single point] | 
COc1cc(/C=C2\SC(=Nc3ccc(O)cc3)NC2=O)cc(OC)c1O | inconclusive: 3.55 µM [fluorescent, side channel, full curve, poor fit] | 
COCCN(C(=O)c1csnn1)C(C(=O)NC1CCCCC1)c1ccccc1F (centres undefined) | inconclusive: 50.1 µM [fluorescent, side channel, partial curve] | 
COc1ccc(C(=O)N/N=C\c2ccoc2)cc1 | inconclusive: 10 µM [quencher, side channel, single point] | 
Cc1cc(C)cc(N(C(=O)Cn2nnc(-c3ccccc3)n2)C(C(=O)NC2CCCCC2)c2ccccn2)c1 (centres undefined) | inconclusive: 1.41 µM [fluorescent, side channel, full curve] | 
Cc1ccsc1/C=C1\CCc2ccccc2C1=O | inconclusive: 14.1 µM [fluorescent, side channel, single point] | 
O=C(NNC(=O)c1cc([N+](=O)[O-])ccc1Cl)c1cccs1 | inconclusive: 11.2 µM [inhibitor, full curve, poor fit] | 
C[n+]1cc(C(=O)N2CCCCC2)ccc1/C=C/c1c[nH]c2ccccc12 | inconclusive: 39.8 µM [fluorescent, side channel, partial curve] | 
CS(=O)(=O)n1nc(-c2cccnc2)nc1NCc1ccccc1 | inconclusive: 35.5 µM [fluorescent, side channel, single point] | 
C#CCNC(=O)C1=C[C@@H](c2coc3ccccc3c2=O)[C@H](CCCO)[C@@H](OCC)O1 | inconclusive: 89.1 µM [inhibitor, single point] | 
CN(C)S(=O)(=O)c1ccc(N/C=C(\[N+](=O)[O-])S(=O)(=O)c2ccccc2)cc1 | inconclusive: 1 µM [fluorescent, side channel, full curve] | 
CCOC(=O)c1cnc2c(ccc3ccccc32)c1NCCCN(C)C | inconclusive: 31.6 µM [quencher, side channel, single point] | 
O=C1C(=O)N(CCN2CCOCC2)C(c2ccc([N+](=O)[O-])cc2)/C1=C(/O)c1ccc2c(c1)OCO2 (centres undefined) | inconclusive: 1.58 µM [quencher, side channel, full curve, poor fit] | 
COc1ccc(N2CCN(CC(=O)Nc3sccc3C#N)CC2)cc1 | inconclusive: 14.1 µM [fluorescent, side channel, single point] | 
Cc1ccccc1S(=O)(=O)NC1OC(=O)C(Cl)=C1Cl (centres undefined) | inconclusive: 39.8 µM [inhibitor, partial curve] | 
COc1ccccc1Nc1nc(NCCCN(C)C)nc(N)c1[N+](=O)[O-] | inconclusive: 35.5 µM [quencher, side channel, single point] | 
COC(=O)[C@@H](c1ccccc1)N(C)S(=O)(=O)c1cccc(S(=O)(=O)N(C)[C@@H](C(=O)OC)c2ccccc2)c1 | inactive | 

Another view of 3 compounds above:

| SMILES | Potency | activity change, negative = inhibition |
| --- | --- | --- |
| COc1cc(/C=C(\C#N)c2nc3ccccc3s2)cc([N+](=O)[O-])c1O | inactive |  |
| O=C1NC[C@H](Cc2ccc(O)cc2)N(CCc2cccc3ccccc23)C1=O | inconclusive: 1.41 µM [inhibitor, full curve, poor fit] |  |
| COc1ccc(C(O)c2nccn2Cc2ccccc2)cc1OC (centres undefined) | inconclusive: 15.8 µM [inhibitor, single point] |  |

Further entries follow:

SMILES | Potency | activity change, negative = inhibition
N#C/C(=C/c1ccco1)c1nc2ccccc2s1 | inconclusive: 39.8 µM [fluorescent, side channel, single point] | 
Cc1ccc(-c2nc(C#N)c(NCc3ccco3)o2)cc1 | inactive | 
C=CCn1c(=O)[nH]c2nc3cc(N=CN(C)C)c(C)cc3nc2c1=O | inconclusive: 31.6 µM [fluorescent, side channel, partial curve] | 
Cc1ccc(C2=NC(=O)/C(=C/c3cc(O)c(O)c(Br)c3)S2)cc1 | inconclusive: 28.2 µM [quencher, side channel, partial curve] | 
O=C(c1ccc(F)cc1)C1CCN(Cc2cn[nH]c2-c2ccccc2)CC1 | inconclusive: 8.91 µM [fluorescent, side channel, full curve, poor fit] | 
COc1ccc(-c2cc(C#N)nc(N3CCNCC3)n2)cc1 | inconclusive: 39.8 µM [quencher, side channel, single point] | 
Nc1nc2c(nc(Br)n2C2O[C@H]3COP(=O)(O)O[C@@H]3C2O)c(=O)[nH]1 (some centres undefined) | inactive | 
N=C1/C(=C\c2coc3ccccc3c2=O)C(=O)N=C2SC=CN12 | inconclusive: 4.47 µM [fluorescent, side channel, full curve] | 
N#C/C(=C\c1cn(Cc2ccccc2C#N)c2ccccc12)C(=O)NCc1cccs1 | inconclusive: 70.8 µM [fluorescent, side channel, single point] | 
O=C(O)CC(NC(=O)C12CC3CC(CC(C3)C1)C2)c1cc([N+](=O)[O-])ccc1Cl (centres undefined) | inconclusive: 1.41 µM [fluorescent, side channel, full curve] | 
S=C1NC=NC2N=CNC12 (centres undefined) | inconclusive: 89.1 µM [fluorescent, side channel, single point] | 
Cc1ccc2cc(CN(CC(C)C)S(=O)(=O)c3cccc4nonc34)c(=O)[nH]c2c1 | inconclusive: 1 µM [quencher, side channel, partial curve, poor fit] | 
CC(=NCCCn1ccnc1)c1c(C)[nH]n(-c2ccc([N+](=O)[O-])cc2)c1=O | inactive | 
O=C1CCCCc2sc(Br)c([N+](=O)[O-])c2N1 | inactive | 
COC(=O)/C=C1\SC(=NC(=O)c2cccc(Cl)c2)NC1=O | inconclusive: 12.6 µM [inhibitor, full curve] | 
COc1ccc(Oc2cccc(Cl)c2CNC(=O)c2ccccc2C(=O)O)cc1 | inconclusive: 70.8 µM [quencher, side channel, single point] | 
O=C(NC(=S)N1CCN(c2ccc(F)cc2)CC1)c1cccs1 | inactive | 
O=C(CSc1nnc(CNC(=O)c2c(F)cccc2F)o1)NCc1ccccc1 | inconclusive: 10 µM [quencher, side channel, single point] | 
CN(C)/C=C(\C=O)c1ncc(C(F)(F)F)cc1Cl | inconclusive: 3.16 µM [fluorescent, side channel, full curve, poor fit] | 

Reference: PubChem BioAssay AID2662 (National Center for Advancing Translational Sciences (NCATS), 2010)
